# Laboratory results as given in US20190375846A1.
# No constants are given. Whether binding was seen depends on the method and setting. For some assays here: Binding can be weak; no strength is given.
# Key:
# Insulin [1] = assay: ELISA on coated insulin
# Insulin [2] = assay: ELISA on coated insulin, IgG 0.001-1 µg/ml, OD 450 nm
# [3] = molecular target: cynomolgus monkey GITR at the cell surface (cynomolgus monkey); assay: flow cytometry on murine cells stably transfected with cyno GITR, IgG1 13.7-10000 ng/ml, MFI
# [4] = molecular target: cynomolgus monkey GITR at the cell surface (cynomolgus monkey); assay: flow cytometry, cyno GITR-transfected murine blastoma cells, 10,000-13.7 ng/ml
binding (Insulin [1]),binding (Insulin [2]),binding [3],binding [4],Binder
no binding,no binding (tested: 1 µg/ml),binds,binds,"D-A6 IgG1 (antibody, V domains shown) VH: EVQLVESGGGLVQPGGSLRLSCAASGFSLSTSGYGVGWVRQAPGKGLEWLAHIWWDDDKYYVDSVKGRFTISRDNAKNSLYLQMNSLRAEDTAVYYCARTRQYFPFAYWGQGTLVTVSS VL: EIVLTQSPATLSLSPGERATLSCRASQSVGSNLAWYQQKPGQAPRLLIYSASYRYTGIPARFSGSGSGTDFTLTISSLEPEDFAVYYCQQYSTDPLTFGGGTKVEIK"
,,binds,binds,"G-G10 IgG1 (antibody, V domains shown) VH: EVQLVESGGGLVQPGGSLRLSCAASGFSLSTFGYGVGWVRQAPGKGLEWLAHIWWDDDKYYVDSVKGRFTISRDNAKNSLYLQMNSLRAEDTAVYYCARTRQYFPFAYWGQGTLVTVSS VL: EIVLTQSPATLSLSPGERATLSCRASQSVGTNLAWYQQKPGQAPRLLIYYASYRYTGIPARFSGSGSGTDFTLTISSLEPEDFAVYYCQQYSNDPLTFGGGTKVEIK"
,,binds,binds,"I-C2 IgG1 (antibody, V domains shown) VH: EVQLVESGGGLVQPGGSLRLSCAASGFSLSTSGYGVGWVRQAPGKGLEWLAHIWWDDDKYYVDSVKGRFTISRDNAKNSLYLQMNSLRAEDTAVYYCARTRLYFPFAYWGQGTLVTVSS VL: EIVLTQSPATLSLSPGERATLSCRASQNVGSNLAWYQQKPGQAPRLLIYSASNRYSGIPARFSGSGSGTDFTLTISSLEPEDFAVYYCQQYSTDPLTFGGGTKVEIK"
